Measurements: PubChem BioAssay AID504834 (National Center for Advancing Translational Sciences (NCATS), 2011)
The campaign covered roughly 320,000 compounds. About 22,000 (6.9%) were called active. This list was built around the results that the source calls inconclusive (neither active nor inactive); the mix of calls is not that of the screen. Calls follow the shape of the dose curve; as a rule, active = well fitted inhibition curve with a large enough effect; inconclusive = small, poorly fitted or top-dose-only effect, or another doubt; inactive = no such curve, though single readings can be large or run the other way. Where the call is inconclusive, the potency comes from a doubtful curve fit.

Test: Primary qHTS for delayed death inhibitors of the malarial parasite plastid, 96 hour incubation
Conditions: P. falciparum luciferase reporter growth; series mostly up to 28.7 µM
In short: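 P. falciparum expressing integrated firefly luciferase, in erythrocytes at 2% hematocrit, 0.05% parasitemia, incubated with compounds 96 h at 37 C, 5% CO2. Growth inhibition read as loss of luminescence; two-generation exposure targets delayed-death apicoplast inhibitors.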
Potency is read from the fitted curve at half-maximal effect.

Structure (SMILES)	Potency
O=C(Nc1ccnn1C1CCN(Cc2ccc(O)c(Cl)c2)CC1)C1CCCC1	inconclusive: 14.7 µM [inhibitor, single point]
CCC(C)NC(=O)c1ccc(NC(=O)CC2SC(N3CCCC3)=NC2=O)cc1 (configuration not stated)	inconclusive: 18.5 µM [inhibitor, single point]
CN(C(=O)c1ccc2nccnc2c1)C1CCCCC1	inactive
Nc1nc(Nc2ccccc2F)nc(NCCO)c1[N+](=O)[O-]	inconclusive: 10.4 µM [inhibitor, partial curve, poor fit]
Cc1cc(C)cc(N(CC(=O)NCc2ccco2)S(=O)(=O)c2ccccc2)c1	inactive
O=C(c1ccc(S(=O)(=O)N2CCCCC2)cc1)N1CCN(c2ccccc2F)CC1	inconclusive: 18.5 µM [inhibitor, single point]
COc1ccc(NS(=O)(=O)c2cccc(C(=O)NCCCN3CCOCC3)c2)cc1	inconclusive: 2.62 µM [inhibitor, single point]
CC(=O)N(CCC(c1ccco1)C(C)C)Cc1ccc(OC(C)C)cc1 (configuration not stated)	inconclusive: 11.7 µM [inhibitor, single point]
COc1ccc(S(=O)(=O)Nc2noc3ccccc23)cc1	inconclusive: 2.08 µM [inhibitor, full curve, poor fit]
Cc1ccc(C2CC(=O)NC(SCC(=O)Nc3nccs3)=C2C#N)cc1 (configuration not stated)	inactive
COc1ccc(N(C)S(=O)(=O)c2cccc(C(=O)NCc3ccc4c(c3)OCO4)c2)cc1	inactive
CC(C)(C)NC(=O)c1nn(Cc2ccccc2)c(=O)c2ccccc12	inconclusive: 5.22 µM [inhibitor, partial curve, poor fit]
CSc1nc(C)c(C(=O)C[n+]2ccc(C)cc2)cc1C#N	inconclusive: 7.38 µM [inhibitor, partial curve]
CCN(CC)S(=O)(=O)c1ccc(C(=O)NCc2ccc(C)cc2)cc1	inconclusive: 10.4 µM [inhibitor, single point]
N#CCC(=N)N1CCN(c2cccc(Cl)c2)CC1	inconclusive: 18.5 µM [inhibitor, single point]
CC1(C)Cc2c(C#N)c(SCCC#N)nc(N3CCOCC3)c2CO1	inconclusive: 8.28 µM [inhibitor, partial curve, poor fit]
CC(C)C(NC(=O)Cc1ccccc1)C(=O)N1CCN(c2cccc(Cl)c2)CC1 (configuration not stated)	inconclusive: 10.4 µM [inhibitor, partial curve]
CCCN(CCC)C(=O)C1CCN(c2cc(C)nc3c(-c4ccc(OC)c(OC)c4)c(C)nn23)CC1	inconclusive: 16.5 µM [inhibitor, single point]
CC(C)Cc1nc2oc3c(NCc4cccnc4)ncnc3c2c2c1CCC2	inconclusive: 2.33 µM [inhibitor, full curve, poor fit]
CCCNC(=O)CCn1cc(-c2ccc(OC)cc2)nc1CCN	inconclusive: 10.4 µM [inhibitor, single point]
C/C=C/C=N/Nc1nc(C)cc(=O)[nH]1	inconclusive: 1.65 µM [inhibitor, partial curve, poor fit]

Sorted by length of the SMILES (ascending): some entries from above.
Structure (SMILES)	Potency
C/C=C/C=N/Nc1nc(C)cc(=O)[nH]1	inconclusive: 1.65 µM [inhibitor, partial curve, poor fit]
CCCNC(=O)CCn1cc(-c2ccc(OC)cc2)nc1CCN	inconclusive: 10.4 µM [inhibitor, single point]
CSc1nc(C)c(C(=O)C[n+]2ccc(C)cc2)cc1C#N	inconclusive: 7.38 µM [inhibitor, partial curve]
CCN(CC)S(=O)(=O)c1ccc(C(=O)NCc2ccc(C)cc2)cc1	inconclusive: 10.4 µM [inhibitor, single point]
O=C(Nc1ccnn1C1CCN(Cc2ccc(O)c(Cl)c2)CC1)C1CCCC1	inconclusive: 14.7 µM [inhibitor, single point]
O=C(c1ccc(S(=O)(=O)N2CCCCC2)cc1)N1CCN(c2ccccc2F)CC1	inconclusive: 18.5 µM [inhibitor, single point]
CCCN(CCC)C(=O)C1CCN(c2cc(C)nc3c(-c4ccc(OC)c(OC)c4)c(C)nn23)CC1	inconclusive: 16.5 µM [inhibitor, single point]

Further compounds:

Structure (SMILES)	Potency
CCC(=O)Nc1ccc2c(c1)nc(CN1CCN(C(C)=O)CC1)n2C	inconclusive: 0.0928 µM [inhibitor, full curve, poor fit]
CC(C)(C)c1ccc(OCC(=O)N/N=C/c2cc(Br)ccc2OC(=O)c2ccco2)cc1	inconclusive: 1.85 µM [inhibitor, partial curve, poor fit]
COc1ccc(C(C)=O)cc1CSc1nnc(Nc2ccc(C)cc2)s1	inconclusive: 0.329 µM [inhibitor, full curve, poor fit]
COc1cc(OC)c(NC(=O)c2c(-c3ccccc3)noc2C)cc1Cl	inconclusive: 4.15 µM [inhibitor, single point]
O=C(COC(=O)c1ccc2[nH]c3c(c2c1)CCCC3)Nc1ccccc1Cl	inconclusive: 18.5 µM [inhibitor, single point]
CCOc1ccc(CN2CCNC(=O)C2CC(=O)N(C)Cc2nonc2C)cc1 (configuration not stated)	inactive
CCC/C(=N\NC(=O)c1ccco1)c1ccc(Cl)s1	active: 13.1 µM
COc1cccc(-c2nnc3sc(-c4ccc(Cl)cc4)nn23)c1	inactive
COc1ccccc1N1CCN(C(=O)c2ccccc2SCC(=O)NCc2ccco2)CC1	inactive
CC1CCN(CC(O)COc2ccc(F)cc2)CC1 (configuration not stated)	inconclusive: 18.5 µM [inhibitor, single point]
NC(=O)Cc1ccc(C(=O)c2ccccc2)s1	inactive
CS(=O)(=O)c1ccc(Cl)c(NC(=O)COC(=O)c2ncc(Cl)c(Cl)c2Cl)c1	inactive
Cc1c(C(=O)N(C)CCOc2ccccc2)oc2c(Cl)cccc12	inactive
COc1ccc(C)cc1S(=O)(=O)N(C)CC(=O)N1CCN(c2ccccc2)CC1	inactive
Cc1ccc(NC(=O)Nc2ccc(Cl)c(Cl)c2)nc1	inconclusive: 13.1 µM [inhibitor, single point]
Cc1ccc([C@@H]2[C@@H]3C(=O)N(c4ccccc4)C(=O)[C@@H]3[C@]3(C)C(=O)N(Cc4ccccn4)CC(=O)N23)o1	inconclusive: 3.7 µM [inhibitor, single point]
Cc1ccc(-n2nnnc2SCC(=O)NNC(=O)c2ccc([N+](=O)[O-])cc2)cc1	inconclusive: 18.5 µM [inhibitor, single point]
COc1ccc(NC(=O)CN(C)CC(=O)Nc2ccc(Cl)c(S(=O)(=O)N(C)C)c2)cc1	inconclusive: 4.15 µM [inhibitor, partial curve, poor fit]
O=C(Nc1ccc(Cl)cc1)Nc1nnc(CSCc2ccccc2Cl)s1	inconclusive: 5.86 µM [inhibitor, partial curve, poor fit]
C/C(=N\NC(=O)C(O)c1ccccc1)c1cccnc1 (configuration not stated)	inconclusive: 18.5 µM [inhibitor, single point]
COC(=O)c1ccccc1NC(=O)Cn1cnc2ccc(S(=O)(=O)N3CCC(C)CC3)cc2c1=O	inconclusive: 18.5 µM [inhibitor, single point]
